The assay concerns the target p38α (mouse (endogenous in BMDCs)) (UniProt P47811). In words: co-IP; DCs treated with OVA@DDAB/PLGA Nv or blank group, lysed in 50 mM Tris pH 8.0, 150 mM NaCl, 0.25% NP-40, 1 mM DTT, protease inhibitors; immunoprecipitated with anti-p38α or control IgG; Western blot with anti-MKK3. A general note: A western blot detects proteins with antibodies after separation by electrophoresis.

Sequences of proteins named here, by UniProt entry; tags and fusion partners are left off.
UniProt P47811: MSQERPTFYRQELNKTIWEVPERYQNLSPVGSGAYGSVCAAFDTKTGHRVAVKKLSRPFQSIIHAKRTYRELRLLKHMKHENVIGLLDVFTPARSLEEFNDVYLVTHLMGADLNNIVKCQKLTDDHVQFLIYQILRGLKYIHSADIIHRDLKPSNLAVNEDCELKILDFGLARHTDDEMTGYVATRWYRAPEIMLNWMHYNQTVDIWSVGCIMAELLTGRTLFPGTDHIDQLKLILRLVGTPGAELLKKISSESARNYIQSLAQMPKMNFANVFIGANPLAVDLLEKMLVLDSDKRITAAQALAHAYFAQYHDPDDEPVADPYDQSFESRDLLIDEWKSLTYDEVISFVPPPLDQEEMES

Results are given in words; binding and its absence hold for the method and conditions named. In cells and extracts the contact can be indirect. Some entries that bind do so weakly or less than the wild type.

Drawing on publication PMC8626881, this text covers binding for one molecule.

B1: mitogen-activated protein kinase 3 (MKK3) (enzyme, UniProt O09110 1-347)
chain: MESPAASPPASLPQTKGKSKRKKDLRISCVSKPPVSNPTPPRNLDSRTFITIGDRNFEVEADDLVTISELGRGAYGVVEKVRHAQSGTIMAVKRIRATVNTQEQKRLLMDLDINMRTVDCFYTVTFYGALFREGDVWICMELMDTSLDKFYRKVLEKNMKIPEDILGEIAVSIVRALEHLHSKLSVIHRDVKPSNVLINKEGHVKMCDFGISGYLVDSVAKTMDAGCKPYMAPERINPELNQKGYNVKSDVWSLGITMIEMAILRFPYESWGTPFQQLKQVVEEPSPQLPADQFSPEFVDFTSQCLRKNPAERMSYLELMEHPFFTLHKTKKTDIAAFVKEILGEDS
Take B1: the binding entry is “binds”.
